Data reported in PMC8631636.
These are yes or no findings as the source states them, for the method shown. In cells and extracts the contact can be indirect. Here binding means that the protein was enriched with, or labelled near, the bait; the list need not be complete. Blank lines part the entries; values can stand above or below the molecule they belong to.

Protein sequences, listed by entry. Tags and fused reporters are not part of them.
UniProt Q8BLR2: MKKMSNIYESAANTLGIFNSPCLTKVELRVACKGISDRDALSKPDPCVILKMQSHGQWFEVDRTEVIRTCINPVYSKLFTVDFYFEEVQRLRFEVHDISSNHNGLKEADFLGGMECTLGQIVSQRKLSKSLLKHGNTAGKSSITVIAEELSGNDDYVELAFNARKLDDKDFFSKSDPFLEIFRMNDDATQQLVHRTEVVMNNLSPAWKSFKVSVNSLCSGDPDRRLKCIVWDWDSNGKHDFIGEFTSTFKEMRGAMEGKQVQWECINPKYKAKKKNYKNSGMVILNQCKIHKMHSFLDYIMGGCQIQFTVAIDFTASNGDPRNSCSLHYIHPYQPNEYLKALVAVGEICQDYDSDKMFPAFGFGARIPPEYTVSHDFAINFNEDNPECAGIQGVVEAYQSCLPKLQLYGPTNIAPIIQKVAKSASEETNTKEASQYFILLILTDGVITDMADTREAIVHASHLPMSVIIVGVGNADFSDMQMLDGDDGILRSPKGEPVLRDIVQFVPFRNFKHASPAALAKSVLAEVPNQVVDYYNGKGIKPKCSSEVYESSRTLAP
UniProt Q9JIS5: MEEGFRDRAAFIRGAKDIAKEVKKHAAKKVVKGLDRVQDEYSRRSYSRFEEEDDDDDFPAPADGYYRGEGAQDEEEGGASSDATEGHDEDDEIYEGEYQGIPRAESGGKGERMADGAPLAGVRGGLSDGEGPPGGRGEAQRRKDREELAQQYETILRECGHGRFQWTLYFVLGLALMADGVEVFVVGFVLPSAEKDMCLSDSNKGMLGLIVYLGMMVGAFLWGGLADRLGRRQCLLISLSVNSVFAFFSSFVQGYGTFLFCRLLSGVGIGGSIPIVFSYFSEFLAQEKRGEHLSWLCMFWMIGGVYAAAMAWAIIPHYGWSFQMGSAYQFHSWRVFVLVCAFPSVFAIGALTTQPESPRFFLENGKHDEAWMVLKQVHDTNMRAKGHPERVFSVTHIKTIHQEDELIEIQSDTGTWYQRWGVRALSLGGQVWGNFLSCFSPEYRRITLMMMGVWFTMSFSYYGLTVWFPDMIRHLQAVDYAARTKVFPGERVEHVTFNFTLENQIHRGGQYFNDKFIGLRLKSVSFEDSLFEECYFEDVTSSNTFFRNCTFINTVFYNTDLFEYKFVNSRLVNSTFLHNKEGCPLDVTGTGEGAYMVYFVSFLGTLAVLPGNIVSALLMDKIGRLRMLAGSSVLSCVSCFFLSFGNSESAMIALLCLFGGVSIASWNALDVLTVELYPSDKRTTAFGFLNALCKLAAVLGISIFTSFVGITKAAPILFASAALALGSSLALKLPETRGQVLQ
UniProt P14873: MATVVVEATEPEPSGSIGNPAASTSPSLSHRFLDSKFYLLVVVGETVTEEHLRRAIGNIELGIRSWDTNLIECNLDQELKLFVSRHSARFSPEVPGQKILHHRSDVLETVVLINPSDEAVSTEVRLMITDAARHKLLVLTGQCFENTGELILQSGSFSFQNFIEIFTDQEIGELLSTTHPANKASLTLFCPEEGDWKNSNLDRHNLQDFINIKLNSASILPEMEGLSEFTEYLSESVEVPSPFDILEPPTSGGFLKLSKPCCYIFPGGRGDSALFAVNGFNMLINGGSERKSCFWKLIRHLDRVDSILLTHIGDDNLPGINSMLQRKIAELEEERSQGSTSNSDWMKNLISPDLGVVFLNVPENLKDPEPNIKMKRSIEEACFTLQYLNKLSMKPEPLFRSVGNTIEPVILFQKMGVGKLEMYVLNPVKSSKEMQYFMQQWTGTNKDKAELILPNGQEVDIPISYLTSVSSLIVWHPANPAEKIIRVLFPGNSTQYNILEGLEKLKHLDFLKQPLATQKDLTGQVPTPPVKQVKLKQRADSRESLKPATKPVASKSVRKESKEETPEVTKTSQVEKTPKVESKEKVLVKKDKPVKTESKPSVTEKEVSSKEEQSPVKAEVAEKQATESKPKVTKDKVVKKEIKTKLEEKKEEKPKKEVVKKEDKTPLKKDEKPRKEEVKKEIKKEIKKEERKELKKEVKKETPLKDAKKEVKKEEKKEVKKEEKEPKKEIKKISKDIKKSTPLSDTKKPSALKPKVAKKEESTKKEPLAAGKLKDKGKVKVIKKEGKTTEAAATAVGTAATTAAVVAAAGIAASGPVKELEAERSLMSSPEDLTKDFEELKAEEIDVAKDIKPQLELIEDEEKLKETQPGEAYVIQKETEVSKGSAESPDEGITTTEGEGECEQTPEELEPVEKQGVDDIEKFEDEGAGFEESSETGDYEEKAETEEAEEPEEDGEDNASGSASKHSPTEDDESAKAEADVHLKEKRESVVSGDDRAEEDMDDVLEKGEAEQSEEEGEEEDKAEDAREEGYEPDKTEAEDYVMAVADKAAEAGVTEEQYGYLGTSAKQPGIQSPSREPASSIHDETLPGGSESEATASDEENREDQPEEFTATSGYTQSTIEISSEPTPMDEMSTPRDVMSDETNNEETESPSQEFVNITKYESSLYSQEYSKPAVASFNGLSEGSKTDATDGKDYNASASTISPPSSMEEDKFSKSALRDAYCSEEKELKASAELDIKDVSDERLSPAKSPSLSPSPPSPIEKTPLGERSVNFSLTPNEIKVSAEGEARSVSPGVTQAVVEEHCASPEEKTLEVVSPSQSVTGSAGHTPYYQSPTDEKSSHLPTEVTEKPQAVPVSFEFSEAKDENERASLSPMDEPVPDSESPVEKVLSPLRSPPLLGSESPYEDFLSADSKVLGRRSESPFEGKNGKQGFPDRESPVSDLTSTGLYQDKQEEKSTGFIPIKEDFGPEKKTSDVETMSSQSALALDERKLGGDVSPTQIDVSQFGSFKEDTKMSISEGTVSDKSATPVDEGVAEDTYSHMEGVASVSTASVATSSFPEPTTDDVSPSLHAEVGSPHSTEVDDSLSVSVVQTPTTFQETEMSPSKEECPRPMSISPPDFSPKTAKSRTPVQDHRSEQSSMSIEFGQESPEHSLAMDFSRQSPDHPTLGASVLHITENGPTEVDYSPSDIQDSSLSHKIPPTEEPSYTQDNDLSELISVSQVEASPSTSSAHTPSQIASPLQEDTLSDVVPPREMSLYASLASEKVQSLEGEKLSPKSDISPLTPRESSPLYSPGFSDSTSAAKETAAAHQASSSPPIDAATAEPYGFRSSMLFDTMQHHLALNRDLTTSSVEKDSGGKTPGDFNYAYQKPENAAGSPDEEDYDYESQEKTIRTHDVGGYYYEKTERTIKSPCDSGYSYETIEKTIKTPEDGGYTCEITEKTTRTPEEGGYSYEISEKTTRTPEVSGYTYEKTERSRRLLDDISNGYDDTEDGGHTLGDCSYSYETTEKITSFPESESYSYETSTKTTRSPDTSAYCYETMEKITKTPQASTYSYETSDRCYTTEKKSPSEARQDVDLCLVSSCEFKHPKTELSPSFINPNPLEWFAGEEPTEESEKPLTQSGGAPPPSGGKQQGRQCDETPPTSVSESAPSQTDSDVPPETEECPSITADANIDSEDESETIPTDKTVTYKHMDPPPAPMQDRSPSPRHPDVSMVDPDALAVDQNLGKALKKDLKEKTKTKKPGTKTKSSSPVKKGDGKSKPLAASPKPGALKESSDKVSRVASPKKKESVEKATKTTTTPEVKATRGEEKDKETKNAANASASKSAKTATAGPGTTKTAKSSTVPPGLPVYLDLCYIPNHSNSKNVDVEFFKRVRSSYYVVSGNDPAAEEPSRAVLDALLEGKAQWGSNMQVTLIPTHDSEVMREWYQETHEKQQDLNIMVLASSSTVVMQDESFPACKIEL
UniProt P61264: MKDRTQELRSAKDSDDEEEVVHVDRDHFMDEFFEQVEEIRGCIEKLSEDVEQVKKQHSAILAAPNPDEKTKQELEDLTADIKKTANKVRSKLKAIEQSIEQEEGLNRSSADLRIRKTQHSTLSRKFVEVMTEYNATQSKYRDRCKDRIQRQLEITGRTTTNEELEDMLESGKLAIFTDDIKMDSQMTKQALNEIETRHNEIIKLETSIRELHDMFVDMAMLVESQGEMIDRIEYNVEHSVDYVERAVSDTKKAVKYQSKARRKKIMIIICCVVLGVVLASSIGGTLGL
UniProt P62259: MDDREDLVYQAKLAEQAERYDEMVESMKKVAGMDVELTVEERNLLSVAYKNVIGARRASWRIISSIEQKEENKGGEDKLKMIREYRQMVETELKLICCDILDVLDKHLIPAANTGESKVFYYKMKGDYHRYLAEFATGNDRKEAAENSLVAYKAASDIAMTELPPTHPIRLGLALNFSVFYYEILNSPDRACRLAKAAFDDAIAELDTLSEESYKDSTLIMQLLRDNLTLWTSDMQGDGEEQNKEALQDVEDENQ
UniProt P63101: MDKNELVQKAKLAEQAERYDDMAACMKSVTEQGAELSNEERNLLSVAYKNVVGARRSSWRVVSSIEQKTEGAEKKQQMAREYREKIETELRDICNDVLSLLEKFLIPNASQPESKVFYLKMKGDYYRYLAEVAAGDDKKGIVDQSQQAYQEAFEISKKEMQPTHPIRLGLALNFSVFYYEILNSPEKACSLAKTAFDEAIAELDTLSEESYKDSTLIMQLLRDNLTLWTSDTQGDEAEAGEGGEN

Molecular target: GST-Cpne4 (UniProt Q8BLR2)
Test: affinity purification with mass spectrometry; GST, GST-Cpne4-vWA or GST-Cpne4 on glutathione magnetic beads incubated overnight at 4°C with cleared mouse retina lysate (50mM Tris-HCl, 150mM NaCl, 1mM EDTA, 0.5% NP40); glutathione elution, SDS-PAGE, LC-MS; three replicates; enrichment over GST at 2-fold change and 0.05 FDR; only the target purified

Molecule: SV2 (from UniProt Q9JIS5 1-742)
binding: binds

Molecule: Map1b (from UniProt P14873 1-2464)
binding: binds

Molecule: Syntaxin-1 (from UniProt P61264 1-288)
binding: binds

Molecule: 14-3-3 family member Ywhae (from UniProt P62259 1-255)
binding: binds

B1: 14-3-3 family member Ywhaq (protein, UniProt P68254 1-245)
chain: MEKTELIQKAKLAEQAERYDDMATCMKAVTEQGAELSNEERNLLSVAYKNVVGGRRSAWRVISSIEQKTDTSDKKLQLIKDYREKVESELRSICTTVLELLDKYLIANATNPESKVFYLKMKGDYFRYLAEVACGDDRKQTIENSQGAYQEAFDISKKEMQPTHPIRLGLALNFSVFYYEILNNPELACTLAKTAFDEAIAELDTLNEDSYKDSTLIMQLLRDNLTLWTSDSAGEECDAAEGAEN
binding: binds

B2: 14-3-3 family member Ywhab (protein, UniProt Q9CQV8 1-246)
chain: MTMDKSELVQKAKLAEQAERYDDMAAAMKAVTEQGHELSNEERNLLSVAYKNVVGARRSSWRVISSIEQKTERNEKKQQMGKEYREKIEAELQDICNDVLELLDKYLILNATQAESKVFYLKMKGDYFRYLSEVASGENKQTTVSNSQQAYQEAFEISKKEMQPTHPIRLGLALNFSVFYYEILNSPEKACSLAKTAFDEAIAELDTLNEESYKDSTLIMQLLRDNLTLWTSENQGDEGDAGEGEN
binding: binds

Further lines, results first:

binding: binds
Molecule: 14-3-3 family member Ywhaz (from UniProt P63101 1-245)

binding: binds
B3: 14-3-3 family member Ywhag (protein, UniProt P61982 1-247)
chain: MVDREQLVQKARLAEQAERYDDMAAAMKNVTELNEPLSNEERNLLSVAYKNVVGARRSSWRVISSIEQKTSADGNEKKIEMVRAYREKIEKELEAVCQDVLSLLDNYLIKNCSETQYESKVFYLKMKGDYYRYLAEVATGEKRATVVESSEKAYSEAHEISKEHMQPTHPIRLGLALNYSVFYYEIQNAPEQACHLAKTAFDDAIAELDTLNEDSYKDSTLIMQLLRDNLTLWTSDQQDDDGGEGNN
